Some peptides are written in HELM: one residue between dots, names in brackets for other building blocks, links after the first $.
Test: general procedure: Fmoc solid-phase peptide synthesis; Wang resin (degree of substitution = 1.08 mmol/g); DIC/HOBT
Conditions: conjugation step

Substance	final purity (method not given) [%]
PEPTIDE1{[Hex].C.[Aib].P.[4R-OH-Pro].T.Q.[2-F-Phe].C}|CHEM1{[tMeBn(DOTA-AET)]}$PEPTIDE1,CHEM1,2:R3-1:R1|PEPTIDE1,CHEM1,9:R3-1:R2$$$V2.0	96.9
PEPTIDE1{[Hex].C.[Aib].P.[4R-OH-Pro].T.Q.F.C}|CHEM1{[tMeBn(DOTA-AET)]}$PEPTIDE1,CHEM1,2:R3-1:R1|PEPTIDE1,CHEM1,9:R3-1:R2$$$V2.0	97.8
PEPTIDE1{[Hex].C.[Aib].P.[4R-OH-Pro].T.Q.[2-F-Phe].C}|CHEM1{[tMeBn(NOTA-AET)]}$PEPTIDE1,CHEM1,2:R3-1:R1|PEPTIDE1,CHEM1,9:R3-1:R2$$$V2.0	99.2
PEPTIDE1{[Hex].C.[Aib].P.[4R-OH-Pro].T.Q.F.C}|CHEM1{[tMeBn(NOTA-AET)]}$PEPTIDE1,CHEM1,2:R3-1:R1|PEPTIDE1,CHEM1,9:R3-1:R2$$$V2.0	97.20
PEPTIDE1{[Hex].C.[Aib].P.[4R-OH-Pro].T.Q.[2-CF3-Phe].C}|CHEM1{[tMeBn(DOTA-AET)]}$PEPTIDE1,CHEM1,2:R3-1:R1|PEPTIDE1,CHEM1,9:R3-1:R2$$$V2.0	98.9
